# Assay results taken from paper PMC12040169 (PLOS Biology, 2025).
# This is one part of the list.
# System: T1, CTL2-GFP (C. trachomatis L2/434/Bu, GFP-expressing)
# T1 construct: L2/434/Bu, GFP-expressing
# Design: species or system HeLa; Intracellular C. trachomatis growth in HeLa cells, bulk GFP fluorescence relative to DMSO
# Settings: bulk GFP, single well; 28.5 h, 10 µM; inhibitor
row,Structure (SMILES),% of control remaining
1,Cc1cc2c(cc1Cl)C(=O)CC1(CCNCC1)O2 [CBK282715],142.664%
2,CN(C)CCn1c2c(c3ccccc31)CCCn1cnnc1-2 [CBK267712C],128.869%
3,COC(=O)CCc1ccc(S(=O)(=O)N2CCCN(Cc3cc(F)cc(F)c3)CC2)cc1 [CBK062990],115.732%
4,CCc1cn(C[C@H](NC(=O)c2ccco2)C(=O)O)c(=O)[nH]c1=O [CBK289670],132.078%
5,COc1ccccc1-c1nccnc1NCc1cccs1 [CBK088682],100.913%
6,COc1cc(NC(=O)CSc2ncnc3sc4c(c23)CCCC4)cc(OC)c1 [CBK267547],120.352%
7,CCc1ncsc1C(=O)NC1CCCN(c2ccn(C)n2)C1=O (stereo not drawn) [CBK306498],112.709%
8,CSc1ccc(-c2cn3ccnc3c(Nc3ccccc3)n2)cc1 [CBK066537],200.591%
9,C=CCN1C(=O)CC2(C1=O)C(=O)N(C)c1ccccc12 (stereo not drawn) [CBK075472],87.9782%
10,O=c1c2ccccc2[nH]c(=S)n1CCCN1CCC(Cc2ccccc2)CC1 [CBK267952],136.298%
11,COc1ccc(C2CC(c3c(-c4ccccc4)c4cc(Cl)ccc4[nH]c3=O)=NN2C(=O)CCC(=O)O)cc1OC (stereo not drawn) [CBK296128],144.08%
12,CCN(CC)C(=O)c1sccc1NS(=O)(=O)c1ccc(OC)c(OC)c1 [CBK004596],94.6797%
13,O=C1c2ccccc2NC(c2cnc3ccccc3n2)N1O (stereo not drawn) [CBK288357],139.283%
14,N#Cc1cc(SCCC(=O)O)c(N2CCOCC2)cc1C#N [CBK269212],133.34%
15,O=C(CCn1cccn1)N1Cc2ccccc2CC1C1CCOCC1 (stereo not drawn) [CBK282262],120.896%
16,CCOC(=O)C1(C2CCCCC2)CCN(C(=O)c2cccnc2)CC1 [CBK137104T],111.994%
17,Fc1c(F)c(Oc2ccccc2Cl)c(F)c(F)c1/C=C/CN1CCOCC1 [CBK269318C],126.348%
18,CC(C)(C)c1cn(C[C@H]2CC3CCN2C[C@@H]3C(=O)NCc2ccc(F)cc2)nn1 (stereo partly drawn) [CBK289081],147.593%
19,CCOC(CCNC(=O)c1cnc(Nc2ccccc2OC)c2ccccc12)OCC [CBK291184],131.426%
20,COc1ccc(C)cc1NC(=O)CSc1nnc(-c2ccccc2Cl)n1-c1ccccc1 [CBK267538],101.907%
21,CN1CCN(S(=O)(=O)c2ccc(NC(=O)c3cc(-c4ccncc4)nc4ccc(Cl)cc34)cc2)CC1 [CBK267730],160.836%
22,O=C(/C=C/c1ccco1)NC(=S)Nc1ccccc1[N+](=O)[O-] [CBK264375],89.4993%
23,CCn1nc(C(C)C)cc1C(=O)N1CCN(C)CC1c1ccccc1 (stereo not drawn) [CBK282025],108.219%
24,COc1ccc(NC(=O)c2cnccn2)c(OC)c1 [CBK262240],101.92%
25,Cc1[nH]c(=O)c(C(=O)Nc2ccc(-n3ccc(C(N)=O)n3)cc2)cc1-c1ccccc1 [CBK291194],88.344%
26,O=C(CSc1n[nH]c(-c2ccccc2Cl)n1)Nc1ccccc1F [CBK265901],118.817%

row,Structure (SMILES),% of control remaining
1,C=CCn1c2cc(C)sc2c2cnn(CC(=O)NC3CC3)c(=O)c21 [CBK284149],120.809%
2,CC1(CNC(=O)c2cc(C3CC3)nc3ccccc23)COC1 [CBK281752],149.373%
3,Cn1ccnc1C1(O)CCN(C(=O)c2cccc(F)c2)CC1 [CBK283543],117.093%
4,COc1cc(F)ccc1-c1ccc(N)c2ccccc12 [CBK084319],165.623%
5,O=C(O)C1CCCCN1S(=O)(=O)c1ccc(Cl)cc1 (stereo not drawn) [CBK077418],76.7703%
6,Cc1ccc(CCC(=O)C(C#N)c2nc3ccccc3s2)o1 (stereo not drawn) [CBK268944],82.0599%
7,Cc1cc(C)n(C(C)CC(=O)NCC(C)N2CCC(C)CC2)n1 (stereo not drawn) [CBK282104],109.552%
8,O=[N+]([O-])c1cc(S(=O)(=O)Nc2ccccc2)ccc1N1CCN2CCCC2C1 (stereo not drawn) [CBK001248],132.51%
9,CCc1nc2n(n1)CC(NCc1nc(C)ccc1O)CC2 (stereo not drawn) [CBK306107],118.728%
10,COc1cc2c(cc1CN(Cc1ccc3c(c1)OCO3)CC(C)O)CCC2 (stereo not drawn) [CBK286473],99.4738%
11,O=C(NC1CCCC1)c1ccc2nccnc2c1 [CBK200217],105.413%
12,Cc1cccc(OCc2nnc(SCc3nc4ccccc4c(=O)[nH]3)o2)c1 [CBK269030],136.403%
13,O=C(O)CCc1ccc(-c2cc(N3CCN(CC(=O)N4CCCC4)CC3)ncn2)cc1 [CBK091079],140.922%
14,Clc1ccc(CN2CCN(CCc3ccccc3)CC2)cc1Cl [CBK126420],129.801%
15,O=C(NCCNC(=O)c1ccccn1)c1ccccn1 [CBK265654],124.38%
16,CC(C)C1SC(=NC2CC3CCC2C3)N(C)C1=O (stereo not drawn) [CBK076727],126.58%
17,Cc1cc(Cl)ccc1NC(=O)CCC(=O)N/N=C/c1ccc(O)cc1 [CBK261974],119.202%
18,CN(Cc1ccccc1)C(=O)[C@@H]1Cc2[nH]cnc2CN1Cc1cc2ccccc2o1 [CBK288978],81.1875%
19,COc1ccccc1-c1cccc(C2CCCN(C(=O)CCCc3ccccc3)C2)n1 (stereo not drawn) [CBK286217],88.3049%
20,COc1ccc(Oc2nccnc2N2CCN(CCCC#N)CC2)cc1OC [CBK083056T],124.371%
21,CNCC1CCCN(C(=O)c2ccc(Oc3cccnc3)cc2)C1 (stereo not drawn) [CBK304479],131.277%
22,Cc1ccc2c(N)c(C(=O)c3cccs3)sc2n1 [CBK115369],100%
23,CN1CCN(c2nccnc2-c2ccoc2)CC1 [CBK088834],129.735%
24,CCCCNC(=O)N(O)C1N(C)C(=S)SC1(C)C (stereo not drawn) [CBK006880],124.962%
25,Clc1ccc(-c2c[nH]c([C@@H]3COCCN3Cc3c[nH]cn3)n2)cc1 [CBK289316],109.21%

# Quoted from the listing:
# `CC(C)C1SC(=NC2CC3CCC2C3)N(C)C1=O` (stereo not drawn) [CBK076727] – % of control remaining: 126.58%
# `Cc1cc(C)n(C(C)CC(=O)NCC(C)N2CCC(C)CC2)n1` (stereo not drawn) [CBK282104] – % of control remaining: 109.552%
# `C=CCN1C(=O)CC2(C1=O)C(=O)N(C)c1ccccc12` (stereo not drawn) [CBK075472] – % of control remaining: 87.9782%
